# Measured values from the supplement of paper PMC8728848.
# This is one part of the list.
# How the values were obtained:
# Assay in all cases: glycan array binding signal (z-score within array); higher = stronger binding
# Conditions in all cases: glycan notation: IUPAC condensed, linker removed
# [1] = target: Neu5Ac(a2-6)Gal(b1-4)GlcNAc(b1-3)Gal(b1-4)GlcNAc(b1-3)Gal(b1-4)GlcNAc(b1-2)Man(a1-3)[Neu5Ac(a2-6)Gal(b1-4)GlcNAc(b1-3)Gal(b1-4)GlcNAc(b1-3)Gal(b1-4)GlcNAc(b1-2)Man(a1-6)]GalNAc
# Outline: (§1)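 Glycan array binding is given as a within-array Z-score, which can be read as non-binding when negative. The arrays, 3228 of them, came from the Consortium for Functional Glycomics database and were retained only where the protein sequence was available. Z-scores were averaged across arrays of the same protein sequence at different concentrations or buffers and across linkers.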
# [2] = target: Neu5Ac(a2-6)Gal(b1-4)GlcNAc(b1-3)Gal(b1-4)GlcNAc(b1-3)GalNAc
# Outline: as §1
# [3] = target: Neu5Ac(a2-6)Gal(b1-4)GlcNAc(b1-3)Gal(b1-4)GlcNAc(b1-3)[Neu5Ac(a2-6)Gal(b1-4)GlcNAc(b1-3)Gal(b1-4)GlcNAc(b1-6)]GalNAc
# Outline: as §1
# [4] = target: Neu5Ac(a2-6)Gal(b1-4)GlcNAc(b1-3)Gal(b1-4)GlcNAc(b1-6)[Gal(b1-3)]GalNAc
# Outline: as §1
# [5] = target: Neu5Ac(a2-6)Gal(b1-4)GlcNAc(b1-3)Gal(b1-4)[Fuc(a1-3)]GlcNAc(b1-3)Gal(b1-4)[Fuc(a1-3)]GlcNAc
# Outline: as §1
# [6] = target: Neu5Ac(a2-6)Gal(b1-4)GlcNAc(b1-3)GalNAc
# Outline: as §1
# [7] = target: Neu5Ac(a2-6)Gal(b1-4)GlcNAc(b1-3)[Neu5Ac(a2-6)Gal(b1-4)GlcNAc(b1-6)]GalNAc
# Outline: as §1
# [8] = target: Neu5Ac(a2-6)Gal(b1-4)GlcNAc(b1-6)GalNAc
# Outline: as §1
# [9] = target: Neu5Ac(a2-6)Gal(b1-4)GlcNAc(b1-6)[Gal(b1-3)GlcNAc(b1-3)]Gal(b1-4)Glc
# Outline: as §1
# [10] = target: Neu5Ac(a2-6)Gal(b1-4)GlcNAc(b1-6)[Gal(b1-3)]GalNAc
# Outline: as §1
# [11] = target: Neu5Ac(a2-6)Gal(b1-4)GlcNAc6S
# Outline: as §1
# [12] = target: Neu5Ac(a2-6)GalNAc
# Outline: as §1
# [13] = target: Neu5Ac(a2-6)GalNAc(b1-4)GlcNAc
# Outline: as §1
# [14] = target: Neu5Ac(a2-6)GalNAc(b1-4)GlcNAc6S
# Outline: as §1
# [15] = target: Neu5Ac(a2-6)GlcNAc(b1-4)GlcNAc
# Outline: as §1
# [16] = target: Neu5Ac(a2-6)GlcNAc(b1-4)GlcNAc(b1-4)GlcNAc
# Outline: as §1
# [17] = target: Neu5Ac(a2-8)Neu5Ac
# Outline: as §1
# [18] = target: Neu5Ac(a2-8)Neu5Ac(a2-3)Gal(b1-3)GalNAc(b1-4)[Neu5Ac(a2-3)]Gal(b1-4)Glc
# Outline: as §1
# [19] = target: Neu5Ac(a2-8)Neu5Ac(a2-3)Gal(b1-3)GalNAc(b1-4)[Neu5Ac(a2-8)Neu5Ac(a2-3)]Gal(b1-4)Glc
# Outline: as §1
# [20] = target: Neu5Ac(a2-8)Neu5Ac(a2-3)Gal(b1-4)Glc
# Outline: as §1
# [21] = target: Neu5Ac(a2-8)Neu5Ac(a2-3)Gal(b1-4)GlcNAc
# Outline: as §1
# [22] = target: Neu5Ac(a2-8)Neu5Ac(a2-3)[Gal(b1-3)GalNAc(b1-4)]Gal(b1-4)Glc
# Outline: as §1
# [23] = target: Neu5Ac(a2-8)Neu5Ac(a2-3)[GalNAc(b1-4)]Gal(b1-4)Glc
# Outline: as §1
# [24] = target: Neu5Ac(a2-8)Neu5Ac(a2-8)Neu5Ac
# Outline: as §1
# [25] = target: Neu5Ac(a2-8)Neu5Ac(a2-8)Neu5Ac(a2-3)Gal(b1-4)Glc
# Outline: as §1
# [26] = target: Neu5Ac(a2-8)Neu5Ac(a2-8)Neu5Ac(a2-3)[Gal(b1-3)GalNAc(b1-4)]Gal(b1-4)Glc
# Outline: as §1
# [27] = target: Neu5Ac(a2-8)Neu5Ac(a2-8)Neu5Ac(a2-3)[GalNAc(b1-4)]Gal(b1-4)Glc
# Outline: as §1
# [28] = target: Neu5Ac(a2-8)Neu5Ac(a2-8)Neu5Ac(a2-8)Neu5Ac(a2-3)[GalNAc(b1-4)]Gal(b1-4)Glc
# Outline: as §1
# [29] = target: Neu5Ac(a2-8)Neu5Gc(a2-3)Gal(b1-4)GlcNAc
# Outline: as §1
# [30] = target: Neu5Ac(b2-6)Gal(b1-4)GlcNAc
# Outline: as §1
# [31] = target: Neu5Ac(b2-6)GalNAc
# Outline: as §1
# [32] = target: Neu5Ac9Ac(a2-3)Gal(b1-3)GlcNAc
# Outline: as §1
# [33] = target: Neu5Ac9Ac(a2-3)Gal(b1-4)GlcNAc
# Outline: as §1
# [34] = target: Neu5Ac9Ac(a2-6)Gal(b1-4)GlcNAc
# Outline: as §1
# [35] = target: Neu5Gc(a2-3)Gal(b1-3)GlcNAc
# Outline: as §1
# [36] = target: Neu5Gc(a2-3)Gal(b1-3)[Fuc(a1-4)]GlcNAc
# Outline: as §1
# [37] = target: Neu5Gc(a2-3)Gal(b1-4)Glc
# Outline: as §1
# [38] = target: Neu5Gc(a2-3)Gal(b1-4)GlcNAc
# Outline: as §1
# [39] = target: Neu5Gc(a2-3)Gal(b1-4)GlcNAc(b1-3)Gal(b1-4)GlcNAc(b1-2)Man(a1-3)[Neu5Gc(a2-3)Gal(b1-4)GlcNAc(b1-3)Gal(b1-4)GlcNAc(b1-2)Man(a1-6)]Man(b1-4)GlcNAc(b1-4)GlcNAc
# Outline: as §1
# [40] = target: Neu5Gc(a2-3)Gal(b1-4)[Fuc(a1-3)]GlcNAc
# Outline: as §1
# [41] = target: Neu5Gc(a2-6)Gal(b1-4)GlcNAc
# Outline: as §1
# [42] = target: Neu5Gc(a2-6)GalNAc
# Outline: as §1
# [43] = target: Neu5Gc(a2-8)Neu5Ac(a2-3)Gal(b1-4)GlcNAc
# Outline: as §1
# [44] = target: Neu5Gc(a2-8)Neu5Gc(a2-3)Gal(b1-4)GlcNAc
# Outline: as §1
# [45] = target: Neu5Gc(a2-8)Neu5Gc(a2-3)Gal(b1-4)GlcNAc(b1-3)Gal(b1-4)GlcNAc
# Outline: as §1
# [46] = target: Neu5Gc(a2-8)Neu5Gc(a2-6)Gal(b1-4)GlcNAc
# Outline: as §1
# [47] = target: Neu5Gc(b2-6)Gal(b1-4)GlcNAc
# Outline: as §1
binder,measurement,setting,value
Epa2 (Candida glabrata) (protein) MGSSHHHHHHSSGLVPRGSHMASSKDPTSFPMGCSPQVLKTQPGLAVKLYSYGHPVPGCAYNTYQYPDFPRSGYKKERKLADITGVNGRIDIDLKPNDPCRVLSGNLPSNYNYQNTLTYTNFTMILYGYFQPKVTGYHTFNLEADDLLFMNLGAGNAFDCCRAESTLDNFGNYQSYSIWGTDKATADLTVFLVSGIYYPIRLFYVNRDNNAVLDFSFSTEFNKEIIHDFTSYFFSASDEEQCPGNI,glycan array binding signal (z-score),[1],1.69
same,glycan array binding signal (z-score),[2],0.583
same,glycan array binding signal (z-score),[3],1.24
same,glycan array binding signal (z-score),[4],0.139
same,glycan array binding signal (z-score),[5],-0.274
same,glycan array binding signal (z-score),[6],-0.195
same,glycan array binding signal (z-score),[7],-0.035
same,glycan array binding signal (z-score),[8],0.191
same,glycan array binding signal (z-score),[9],-0.142
same,glycan array binding signal (z-score),[10],0.36
same,glycan array binding signal (z-score),[11],-0.614
same,glycan array binding signal (z-score),[12],-1.06
same,glycan array binding signal (z-score),[13],-1.3
same,glycan array binding signal (z-score),[14],0.429
same,glycan array binding signal (z-score),[15],-0.471
same,glycan array binding signal (z-score),[16],-0.626
same,glycan array binding signal (z-score),[17],-0.019
same,glycan array binding signal (z-score),[18],0.561
same,glycan array binding signal (z-score),[19],0.192
same,glycan array binding signal (z-score),[20],-0.394
same,glycan array binding signal (z-score),[21],-1.36
same,glycan array binding signal (z-score),[22],-0.589
same,glycan array binding signal (z-score),[23],-0.122
same,glycan array binding signal (z-score),[24],-0.29
same,glycan array binding signal (z-score),[25],-0.288
same,glycan array binding signal (z-score),[26],0.479
same,glycan array binding signal (z-score),[27],0.151
same,glycan array binding signal (z-score),[28],-0.235
same,glycan array binding signal (z-score),[29],-1.11
same,glycan array binding signal (z-score),[30],-1
same,glycan array binding signal (z-score),[31],-1.13
same,glycan array binding signal (z-score),[32],-0.352
same,glycan array binding signal (z-score),[33],-0.074
same,glycan array binding signal (z-score),[34],-0.169
same,glycan array binding signal (z-score),[35],-0.205
same,glycan array binding signal (z-score),[36],-0.221
same,glycan array binding signal (z-score),[37],0.273
same,glycan array binding signal (z-score),[38],-0.248
same,glycan array binding signal (z-score),[39],-0.315
same,glycan array binding signal (z-score),[40],-0.382
same,glycan array binding signal (z-score),[41],0.077
same,glycan array binding signal (z-score),[42],0.107
same,glycan array binding signal (z-score),[43],-0.775
same,glycan array binding signal (z-score),[44],0.049
same,glycan array binding signal (z-score),[45],-0.688
same,glycan array binding signal (z-score),[46],-0.989
same,glycan array binding signal (z-score),[47],-0.027

# 3 consecutive entries out of the list so far, quoted:
binder,measurement,setting,value
Epa2 (Candida glabrata) (protein) MGSSHHHHHHSSGLVPRGSHMASSKDPTSFPMGCSPQVLKTQPGLAVKLYSYGHPVPGCAYNTYQYPDFPRSGYKKERKLADITGVNGRIDIDLKPNDPCRVLSGNLPSNYNYQNTLTYTNFTMILYGYFQPKVTGYHTFNLEADDLLFMNLGAGNAFDCCRAESTLDNFGNYQSYSIWGTDKATADLTVFLVSGIYYPIRLFYVNRDNNAVLDFSFSTEFNKEIIHDFTSYFFSASDEEQCPGNI,glycan array binding signal (z-score),[15],-0.471
same,glycan array binding signal (z-score),[16],-0.626
same,glycan array binding signal (z-score),[17],-0.019
